Biological target: Dual specificity tyrosine-phosphorylation-regulated kinase 1B (Homo sapiens, UniProt Q9Y463)
Experiment: Inhibition of full length recombinant human GST-tagged DYRK1B expressed in insect cells using KKISGRLSPIMTEQ-NH2 as substrate incubated for 15 mins in presence of [gamma-32P]ATP
Procedure, shortened: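 Purified recombinant kinase assayed with 100 μM ATP. Values averaged from at least two independent determinations.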

Amino acid sequences for entries named in this document (tags omitted).
UniProt Q9Y463, whole entry: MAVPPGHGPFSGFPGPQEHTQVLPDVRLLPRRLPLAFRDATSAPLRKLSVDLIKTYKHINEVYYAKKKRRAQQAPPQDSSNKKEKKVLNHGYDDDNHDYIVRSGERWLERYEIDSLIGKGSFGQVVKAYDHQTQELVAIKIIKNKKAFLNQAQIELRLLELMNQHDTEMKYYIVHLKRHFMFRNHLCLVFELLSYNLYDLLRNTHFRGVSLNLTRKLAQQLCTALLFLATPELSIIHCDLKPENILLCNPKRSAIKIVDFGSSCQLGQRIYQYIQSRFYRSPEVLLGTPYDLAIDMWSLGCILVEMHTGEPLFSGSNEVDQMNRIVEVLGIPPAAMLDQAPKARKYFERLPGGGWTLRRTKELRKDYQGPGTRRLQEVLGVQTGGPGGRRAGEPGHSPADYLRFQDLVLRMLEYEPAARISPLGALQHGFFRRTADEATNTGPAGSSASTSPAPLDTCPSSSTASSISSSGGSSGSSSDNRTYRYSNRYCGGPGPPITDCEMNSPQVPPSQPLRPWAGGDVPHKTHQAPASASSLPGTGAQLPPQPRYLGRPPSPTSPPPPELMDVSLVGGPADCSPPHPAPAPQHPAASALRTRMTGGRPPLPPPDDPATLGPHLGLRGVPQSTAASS

SMILES: COc1ccc2c(c1)[nH]c1c(C)nccc12 [HARMINE]
- IC50: 180 nM

Reference: ChEMBL document CHEMBL3774321, “Systematic diversification of benzylidene heterocycles yields novel inhibitor scaffolds selective for Dyrk1A, Clk1 and CK2” (Eur J Med Chem, 2016)
